# Assay results published in patent US20250268927A1, “SYNBIOTIC TREATMENT REGIMENS” (PROLACTA BIOSCIENCE, INC., priority 2021, published 2025).
# At least one structure is not confirmed: it was looked up by name or label, or the drawing left a doubt.
# Tested on: B. longum subsp. infantis
# Experiment: Species- and strain-specific quantitative PCR of stool to evaluate B. longum subsp. infantis colonization in healthy adult subjects (Example 2)
# Type: in vivo, human
# Conditions: Cohorts 5A and 5B (Omeprazole days 1-7) compared with Cohort 6 (none); 18 g per day HMO; days 5, 8 and 15
compound,measurement,value
"COc1ccc2[nH]c([S+]([O-])Cc3ncc(C)c(OC)c3C)nc2c1 (stereo not shown) [Omeprazole, omeprazole]",Effect of administration of acid reducing drugs on B. longum subsp. infantis engraftment,no discernable effect
